Assay results as given in PubChem BioAssay AID330 (DTP/NCI, 2004).
The list does not hold the whole screen: it gathers tests that were run many times, whatever their T/C, doses with no T/C, and many T/C values between a quarter and a half above the control. Other doses and runs of a compound stand elsewhere. T/C: endpoint of the treated group in % of that of the vehicle group. Some doses have a count of surviving animals in place of a T/C: the source holds a T/C of zero for them, seemingly a mark for toxic or unscored doses. Some doses without a T/C left all or most animals alive at the check, yet need not have been tolerated: survival well below the control is almost never listed, so the zero probably covers shortened survival too. Counts of survivors are from the toxicity check (mostly the fifth day) where no day follows; animals may have died later. Schedule codes are those of the source, taken here to give the interval after Q, in days (D) or hours (H), and the number of doses after X. Some entries hold several experiments; their values stand side by side, smallest first. For survival time, this PubChem deposit counts one and a half times the control or more as active, and values a quarter to a half above the control carry no call in these data; other NCI protocols may use other cut-offs. Additions like (4×) give the number of equal values in this list.

Tested on: P388 leukemia ip, CD2F1 mice, survival T/C
Assay: NCI In Vivo Anticancer Drug Screen. Data for tumor model P388 Leukemia (intraperitoneal) in CD2F1 (CDF1) mice
Settings: T/C endpoint: median survival time, higher T/C = longer survival

## CC(/C=C/c1ccc(C)cc1)=N\NC(N)=S
dose: 12.0 mg/kg/injection, schedule: Q01DX005 (ip), vehicle: saline
  survivor count: 0 of 6
dose: 25.0 mg/kg/injection, schedule: Q01DX005 (ip), vehicle: saline
  survivor count: 0 of 6
dose: 50.0 mg/kg/injection, schedule: Q01DX005 (ip), vehicle: Klucel + Tween-80
  survivor count: 2 of 6
dose: 100.0 mg/kg/injection, schedule: Q01DX005 (ip), vehicle: Klucel + Tween-80
  survivor count: 0 of 6
dose: 200.0 mg/kg/injection, schedule: Q01DX005 (ip), vehicle: Klucel + Tween-80
  survivor count: 0 of 6

## CNC(=O)OCc1c(COC(=O)NC)c(C)n(-c2ccccc2)c1C
dose: 25.0 mg/kg/injection, schedule: Q01DX009 (ip), vehicle: Klucel (hydroxypropylcellulose) (HPC)
  T/C: 127 % of control
dose: 50.0 mg/kg/injection, schedule: Q01DX009 (ip), vehicle: Klucel (hydroxypropylcellulose) (HPC)
  survivor count: 6 of 6
dose: 100.0 mg/kg/injection, schedule: Q01DX009 (ip), vehicle: Klucel (hydroxypropylcellulose) (HPC)
  survivor count: 5 of 6
dose: 200.0 mg/kg/injection, schedule: Q01DX009 (ip), vehicle: Klucel (hydroxypropylcellulose) (HPC)
  survivor count: 0 of 6

## Cc1ccc(C(C)C)c2c1CN(CCN1COc3c(C(C)C)ccc(C)c3C1)CO2
dose: 60.0 mg/kg/injection, schedule: Q01DX005 (ip), vehicle: saline with Tween-80
  survivor count: 6 of 6
dose: 120.0 mg/kg/injection, schedule: Q01DX005 (ip), vehicle: saline with Tween-80
  survivor count: 6 of 6
dose: 240.0 mg/kg/injection, schedule: Q01DX005 (ip), vehicle: saline with Tween-80
  survivor count: 6 of 6

## NCCCNCCCCNC(=O)C(O)NC(=O)CCCCCCN=C(N)N (configuration not stated)
dose: 3.12 mg/kg/injection, schedule: Q01DX005 (ip), vehicle: saline
  T/C: 146 % of control
dose: 6.25 mg/kg/injection, schedule: Q01DX005 (ip), vehicle: saline
  T/C: 146 % of control
dose: 6.7 mg/kg/injection, schedule: Q01DX009 (ip), vehicle: other, evaluated on day 30
  T/C: 196, 201, 208 % of control
dose: 6.7 mg/kg/injection, schedule: Q01DX009 (ip), vehicle: other, evaluated on day 45
  T/C: 198 % of control
dose: 6.7 mg/kg/injection, schedule: Q01DX009 (ip), vehicle: other, evaluated on day 60
  T/C: 204 % of control
dose: 6.7 mg/kg/injection, schedule: Q01DX009 (ip), vehicle: saline, evaluated on day 45
  T/C: 193, 200, 207, 211 % of control
dose: 6.7 mg/kg/injection, schedule: Q01DX009 (ip), vehicle: saline, evaluated on day 60
  T/C: 194 and 196 % of control
dose: 10.0 mg/kg/injection, schedule: Q01DX009 (ip), vehicle: other, evaluated on day 30
  T/C: 200, 205, 211 % of control
dose: 10.0 mg/kg/injection, schedule: Q01DX009 (ip), vehicle: other, evaluated on day 45
  T/C: 208 % of control
dose: 10.0 mg/kg/injection, schedule: Q01DX009 (ip), vehicle: other, evaluated on day 60
  T/C: 205 % of control
dose: 10.0 mg/kg/injection, schedule: Q01DX009 (ip), vehicle: saline, evaluated on day 45
  T/C: 204 (2×), 206, 209 % of control
dose: 10.0 mg/kg/injection, schedule: Q01DX009 (ip), vehicle: saline, evaluated on day 60
  T/C: 190, 201, 204 % of control
dose: 15.0 mg/kg/injection, schedule: Q01DX009 (ip), vehicle: other, evaluated on day 30
  T/C: 204 (2×) and 214 % of control
dose: 15.0 mg/kg/injection, schedule: Q01DX009 (ip), vehicle: other, evaluated on day 45
  T/C: 183 % of control
dose: 15.0 mg/kg/injection, schedule: Q01DX009 (ip), vehicle: other, evaluated on day 60
  T/C: 215 % of control
dose: 15.0 mg/kg/injection, schedule: Q01DX009 (ip), vehicle: saline, evaluated on day 45
  T/C: 197, 206, 215, 216 % of control
dose: 15.0 mg/kg/injection, schedule: Q01DX009 (ip), vehicle: saline, evaluated on day 60
  T/C: 200, 205, 207 % of control
dose: 22.5 mg/kg/injection, schedule: Q01DX009 (ip), vehicle: other, evaluated on day 30
  T/C: 204 (2×) and 205 % of control
dose: 22.5 mg/kg/injection, schedule: Q01DX009 (ip), vehicle: other, evaluated on day 45
  T/C: 120 % of control
dose: 22.5 mg/kg/injection, schedule: Q01DX009 (ip), vehicle: saline, evaluated on day 45
  T/C: 129, 202, 205, 214 % of control
dose: 22.5 mg/kg/injection, schedule: Q01DX009 (ip), vehicle: saline, evaluated on day 60
  T/C: 140, 194, 212 % of control
dose: 34.0 mg/kg/injection, schedule: Q01DX009 (ip), vehicle: saline
  survivor count: 8 of 10
dose: 50.0 mg/kg/injection, schedule: Q01DX005 (ip), vehicle: saline
  survivor count: 0 of 6 and 2 of 6
dose: 100.0 mg/kg/injection, schedule: Q01DX005 (ip), vehicle: saline
  survivor count: 0 of 6

## CCCCN1C/C(=C\c2ccc(Br)cc2)C(=O)/C(=C/c2ccc(Br)cc2)C1
dose: 50.0 mg/kg/injection, schedule: Q01DX005 (ip), vehicle: saline with Tween-80
  survivor count: 6 of 6
dose: 100.0 mg/kg/injection, schedule: Q01DX005 (ip), vehicle: saline with Tween-80
  survivor count: 6 of 6
dose: 200.0 mg/kg/injection, schedule: Q01DX005 (ip), vehicle: saline with Tween-80
  survivor count: 6 of 6

## Cc1ccc(C)c2c1C(O)(C#Cc1ccccc1)c1ccccc1C2(O)C#Cc1ccccc1 (configuration not stated)
dose: 200.0 mg/kg/injection, schedule: Q01DX009 (ip), vehicle: saline with Tween-80
  survivor count: 6 of 6

## CC(NC(=O)C(N)Cc1ccc(Cl)cc1)P(=O)(O)O (configuration not stated)
dose: 100.0 mg/kg/injection, schedule: Q04DX002 (ip), vehicle: saline with Tween-80
  survivor count: 2 of 6
dose: 200.0 mg/kg/injection, schedule: Q04DX002 (ip), vehicle: saline with Tween-80
  survivor count: 1 of 6
dose: 400.0 mg/kg/injection, schedule: Q04DX002 (ip), vehicle: saline with Tween-80
  survivor count: 0 of 6

## CCCCC1SC2=NCCN2C1(O)c1ccc(Cl)cc1 (configuration not stated)
dose: 200.0 mg/kg/injection, schedule: Q01DX005 (ip), vehicle: Klucel (hydroxypropylcellulose) (HPC)
  survivor count: 0 of 6

## C/C(C#N)=C1/Nc2ccccc2NC1=O
dose: 100.0 mg/kg/injection, schedule: Q01DX009 (ip), vehicle: distilled water + Tween-80 + alcohol
  survivor count: 6 of 6

## O=c1c2ccccc2sc2c([N+](=O)[O-])ccc(NCCCC3CCCN4CCCCC34)c12 (configuration not stated)
dose: 255.0 mg/kg/injection, schedule: Q01DX005 (ip), vehicle: saline with Tween-80
  survivor count: 1 of 6

## O=C1Nc2ccc(Cl)cc2C(c2ccccc2Cl)=NC1O (configuration not stated)
dose: 400.0 mg/kg/injection, schedule: Q01DX009 (ip), vehicle: Klucel (hydroxypropylcellulose) (HPC)
  survivor count: 2 of 6

## CSc1cc(=O)n2c3ccccc3c3ccnc1c32
dose: 5.0 mg/kg/injection, schedule: Q01DX009 (ip), vehicle: saline with Tween-80
  T/C: 141 % of control
dose: 10.0 mg/kg/injection, schedule: Q01DX009 (ip), vehicle: saline with Tween-80
  T/C: 144 % of control

## Cc1c([C@H](C)[C@@H]2NC[C@@H](C)C[C@H]2O)ccc2c1C[C@H]1[C@H]2CC=C2C[C@@H](O)CC[C@@]21C
dose: 6.0 mg/kg/injection, schedule: Q01DX009 (ip), vehicle: saline with Tween-80
  survivor count: 0 of 6 and 3 of 6
dose: 12.0 mg/kg/injection, schedule: Q01DX009 (ip), vehicle: saline with Tween-80
  survivor count: 0 of 6

## Cc1c2oc3c(C)ccc(C(=O)NC4C(=O)NC(C(C)C)C(=O)N5CCCC5C(=O)N(C)CC(=O)N(C)C(C(C)C)C(=O)OC4C)c3nc-2c(C(=O)NC2C(=O)NC(C(C)C)C(=O)N3CC(O)CC3C(=O)N(C)CC(=O)N(C)C(C(C)C)C(=O)OC2C)c(N)c1=O (configuration not stated)
dose: 0.1 mg/kg/injection, schedule: Q01DX009 (ip), vehicle: water
  T/C: 133 % of control
dose: 0.4 mg/kg/injection, schedule: Q01DX009 (ip), vehicle: Klucel (hydroxypropylcellulose) (HPC)
  survivor count: 6 of 6
dose: 0.8 mg/kg/injection, schedule: Q01DX009 (ip), vehicle: Klucel (hydroxypropylcellulose) (HPC)
  survivor count: 4 of 6
dose: 0.8 mg/kg/injection, schedule: Q01DX009 (ip), vehicle: water
  survivor count: 6 of 6
dose: 1.6 mg/kg/injection, schedule: Q01DX009 (ip), vehicle: Klucel (hydroxypropylcellulose) (HPC)
  survivor count: 0 of 6
dose: 1.6 mg/kg/injection, schedule: Q01DX009 (ip), vehicle: water
  survivor count: 5 of 6
